Laboratory results published in paper PMC10183829, “Shuffled ATG8 interacting motifs form an ancestral bridge between UFMylation and autophagy” (The EMBO Journal, 2023).
No constants are given. Whether binding was seen depends on the method and setting. Some results given as binding are weak or reduced against the parent protein; the word gives no strength.

Chains of the proteins cited; added tags and fusions are not shown. Residues count along the entry.
UniProt O95166, residues 3-116: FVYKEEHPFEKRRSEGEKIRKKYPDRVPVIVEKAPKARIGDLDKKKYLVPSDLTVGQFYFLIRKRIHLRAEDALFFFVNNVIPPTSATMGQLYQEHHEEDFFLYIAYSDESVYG

Biological target: T1, mCh-HsC53 (human) (UniProt Q96JB5)
T1 sequence: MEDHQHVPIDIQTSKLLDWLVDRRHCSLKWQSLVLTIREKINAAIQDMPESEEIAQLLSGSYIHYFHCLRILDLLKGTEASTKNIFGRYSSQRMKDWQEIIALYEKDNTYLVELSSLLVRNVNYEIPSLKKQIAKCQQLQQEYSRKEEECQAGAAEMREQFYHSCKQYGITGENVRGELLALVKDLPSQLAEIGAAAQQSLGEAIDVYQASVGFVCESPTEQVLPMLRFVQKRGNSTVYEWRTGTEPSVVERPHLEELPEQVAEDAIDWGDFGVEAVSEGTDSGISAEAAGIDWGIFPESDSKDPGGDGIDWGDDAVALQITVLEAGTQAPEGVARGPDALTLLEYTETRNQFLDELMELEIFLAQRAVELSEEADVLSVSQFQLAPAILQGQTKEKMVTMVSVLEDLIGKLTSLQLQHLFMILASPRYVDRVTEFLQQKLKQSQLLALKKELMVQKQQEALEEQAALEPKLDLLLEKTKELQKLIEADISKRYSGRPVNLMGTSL
Assay: microscopy-based on-bead protein-protein interaction assay; both purified

**Q.** “GABARAP (purified) (from UniProt O95166 3-116)” was tested. Which binding did it give?
**A.** Its binding is “binds”.
